# Reference: the supplement of paper PMC5355238
# Structures can show the parent of a compound that is named as a salt. This is one part of the list. Most values lie at the level of the controls, where differences are scatter.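 Reh is a human leukemia cell line; the read-out is the median γH2AX antibody signal in S-phase cells by flow cytometry, with the score counting standard deviations from the median difference of each paired set of plates. Scores above 2.5 were called candidate hits, while scores below -2 mark compounds that lowered the MK1775-induced damage.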
# Test system: Reh
# Assay: Z' of S-phase gammaH2AX difference (drug + MK1775 minus drug alone) (Z-score); higher = stronger synergistic S-phase DNA damage with MK1775
# Settings: MK1775 concentration 400 nM; first compound 10 µM; 4 h
row,SMILES,Z' of S-phase gammaH2AX difference (Z-score)
1,COC(=O)c1c(C)[nH]c(C)c1C(=O)c1ccccc1Cc1ccccc1 + C=CCn1c(=O)c2cnc(Nc3ccc(N4CCN(C)CC4)cc3)nc2n1-c1cccc(C(C)(C)O)n1 [MK1775],inactive: 1.47
2,CCCC1O[C@@H]2C[C@H]3[C@@H]4CCC5=CC(=O)C=C[C@]5(C)[C@H]4[C@@H](O)C[C@]3(C)[C@]2(C(=O)CO)O1 (stereo partly specified) [Budesonide] + C=CCn1c(=O)c2cnc(Nc3ccc(N4CCN(C)CC4)cc3)nc2n1-c1cccc(C(C)(C)O)n1 [MK1775],inactive: 0.742
3,"NCCC1CCCC(CCN)N1 (stereo unspecified) [MDL 26,630 trihydrochloride] + C=CCn1c(=O)c2cnc(Nc3ccc(N4CCN(C)CC4)cc3)nc2n1-c1cccc(C(C)(C)O)n1 [MK1775]",inactive: 1.29
4,CN1[C@@H]2CC[C@H]1CC(OC(=O)c1c[nH]c3ccccc13)C2 (stereo partly specified) [3-Tropanyl-indole-3-carboxylate hydrochloride] + C=CCn1c(=O)c2cnc(Nc3ccc(N4CCN(C)CC4)cc3)nc2n1-c1cccc(C(C)(C)O)n1 [MK1775],inactive: 0.397
5,CCCCCCCCCCCCCCCCCCOCC(COP(=O)([O-])OCC[N+](C)(C)C)OC (stereo unspecified) + C=CCn1c(=O)c2cnc(Nc3ccc(N4CCN(C)CC4)cc3)nc2n1-c1cccc(C(C)(C)O)n1 [MK1775],inactive: 1.56
6,COc1ccc(/C=C\c2cc(OC)c(OC)c(OC)c2)cc1O [Combretastatin A4] + C=CCn1c(=O)c2cnc(Nc3ccc(N4CCN(C)CC4)cc3)nc2n1-c1cccc(C(C)(C)O)n1 [MK1775],inactive: -0.0983
7,O=NN(CCCl)C(=O)NCCCl [Carmustine] + C=CCn1c(=O)c2cnc(Nc3ccc(N4CCN(C)CC4)cc3)nc2n1-c1cccc(C(C)(C)O)n1 [MK1775],inactive: 0
8,CCOC(=O)c1ncn2c1CN(C)C(=O)c1cc(F)ccc1-2 [Flumazenil] + C=CCn1c(=O)c2cnc(Nc3ccc(N4CCN(C)CC4)cc3)nc2n1-c1cccc(C(C)(C)O)n1 [MK1775],inactive: 0.921
9,NCC(O)(CS(=O)(=O)O)c1ccc(Cl)cc1 (stereo unspecified) [2-Hydroxysaclofen] + C=CCn1c(=O)c2cnc(Nc3ccc(N4CCN(C)CC4)cc3)nc2n1-c1cccc(C(C)(C)O)n1 [MK1775],inactive: -0.18
10,CC[C@H](NC(=O)c1c(C)c(-c2ccccc2)nc2ccccc12)c1ccccc1 + C=CCn1c(=O)c2cnc(Nc3ccc(N4CCN(C)CC4)cc3)nc2n1-c1cccc(C(C)(C)O)n1 [MK1775],inactive: 0.281
11,"N/C(=N\C(=O)c1nc(Cl)c(N)nc1N)NCc1ccc(Cl)c(Cl)c1 [3',4'-Dichlorobenzamil] + C=CCn1c(=O)c2cnc(Nc3ccc(N4CCN(C)CC4)cc3)nc2n1-c1cccc(C(C)(C)O)n1 [MK1775]",inactive: 0.265
12,O=C1O/C(=C/Br)CCC1c1cccc2ccccc12 (stereo unspecified) [Bromoenol lactone] + C=CCn1c(=O)c2cnc(Nc3ccc(N4CCN(C)CC4)cc3)nc2n1-c1cccc(C(C)(C)O)n1 [MK1775],inactive: -0.234
13,CC(C(=O)O)c1cccc(C(=O)c2ccccc2)c1 (stereo unspecified) [Ketoprofen] + C=CCn1c(=O)c2cnc(Nc3ccc(N4CCN(C)CC4)cc3)nc2n1-c1cccc(C(C)(C)O)n1 [MK1775],inactive: -0.284
14,Nc1nc(N)c2nc(CNc3ccc(C(=O)N[C@@H](CCC(=O)O)C(=O)O)cc3)cnc2n1 [Aminopterin] + C=CCn1c(=O)c2cnc(Nc3ccc(N4CCN(C)CC4)cc3)nc2n1-c1cccc(C(C)(C)O)n1 [MK1775],active: 6.27
15,NC(CCCP(=O)(O)O)C(=O)O (stereo unspecified) [(?)-2-Amino-5-phosphonopentanoic acid] + C=CCn1c(=O)c2cnc(Nc3ccc(N4CCN(C)CC4)cc3)nc2n1-c1cccc(C(C)(C)O)n1 [MK1775],inactive: -0.124
16,O=C(O)C(Cc1c[nH]c2ccccc12)N1C(=O)c2ccccc2C1=O (stereo unspecified) + C=CCn1c(=O)c2cnc(Nc3ccc(N4CCN(C)CC4)cc3)nc2n1-c1cccc(C(C)(C)O)n1 [MK1775],inactive: 0.221
17,NCCSSCCN [Cystamine dihydrochloride] + C=CCn1c(=O)c2cnc(Nc3ccc(N4CCN(C)CC4)cc3)nc2n1-c1cccc(C(C)(C)O)n1 [MK1775],inactive: -0.307
18,Nc1nc2c(ncn2COCCO)c(=O)[nH]1 [Acyclovir] + C=CCn1c(=O)c2cnc(Nc3ccc(N4CCN(C)CC4)cc3)nc2n1-c1cccc(C(C)(C)O)n1 [MK1775],inactive: 0.0835

row,SMILES,Z' of S-phase gammaH2AX difference (Z-score)
1,CCCCCN(CCCCC)C(=O)C(CCC(=O)O)NC(=O)c1ccc(Cl)c(Cl)c1 (stereo unspecified) [Lorglumide sodium] + C=CCn1c(=O)c2cnc(Nc3ccc(N4CCN(C)CC4)cc3)nc2n1-c1cccc(C(C)(C)O)n1 [MK1775],inactive: 0.713
2,CC(C)NCC(O)c1ccc(O)c(O)c1 (stereo unspecified) [(?)-Isoproterenol hydrochloride] + C=CCn1c(=O)c2cnc(Nc3ccc(N4CCN(C)CC4)cc3)nc2n1-c1cccc(C(C)(C)O)n1 [MK1775],inactive: -0.0753
3,CC(C)NCC(O)c1ccc(O)c(O)c1 (stereo not drawn) [S(+)-Isoproterenol (+)-bitartrate] + C=CCn1c(=O)c2cnc(Nc3ccc(N4CCN(C)CC4)cc3)nc2n1-c1cccc(C(C)(C)O)n1 [MK1775],inactive: -0.216
4,CS(=O)(=O)N1CCN(Cc2cc3nc(-c4cccc5[nH]ncc45)nc(N4CCOCC4)c3s2)CC1 + C=CCn1c(=O)c2cnc(Nc3ccc(N4CCN(C)CC4)cc3)nc2n1-c1cccc(C(C)(C)O)n1 [MK1775],inactive: -0.573
5,O=C(CCCCCCC(=O)Nc1ccccc1)NO [Vorinostat (SAHA)] + C=CCn1c(=O)c2cnc(Nc3ccc(N4CCN(C)CC4)cc3)nc2n1-c1cccc(C(C)(C)O)n1 [MK1775],inactive: 0.0451
6,Cc1cc(C)c(NC(=O)C[C@H](CC(=O)O)c2cccc3ccccc23)c(C(=O)N2CCC3(CCCC3)CC2)c1 + C=CCn1c(=O)c2cnc(Nc3ccc(N4CCN(C)CC4)cc3)nc2n1-c1cccc(C(C)(C)O)n1 [MK1775],inactive: -0.425
7,C[C@]12C[C@H](O)[C@H]3[C@@H](CCC4=CC(=O)CC[C@@]43C)[C@@H]1CC[C@@H]2C(=O)CO [Corticosterone] + C=CCn1c(=O)c2cnc(Nc3ccc(N4CCN(C)CC4)cc3)nc2n1-c1cccc(C(C)(C)O)n1 [MK1775],inactive: -0.578
8,COc1ccc(S(=O)(=O)Nc2cccnc2Nc2ccc(O)cc2)cc1 + C=CCn1c(=O)c2cnc(Nc3ccc(N4CCN(C)CC4)cc3)nc2n1-c1cccc(C(C)(C)O)n1 [MK1775],inactive: -0.0126
9,COc1ccccc1N1CCN(CCN(C(=O)c2ccc(F)cc2)c2ccccn2)CC1 [p-MPPF dihydrochloride] + C=CCn1c(=O)c2cnc(Nc3ccc(N4CCN(C)CC4)cc3)nc2n1-c1cccc(C(C)(C)O)n1 [MK1775],inactive: -0.218
10,"c1ccc(-c2ccccn2)nc1 [2,2'-Bipyridyl] + C=CCn1c(=O)c2cnc(Nc3ccc(N4CCN(C)CC4)cc3)nc2n1-c1cccc(C(C)(C)O)n1 [MK1775]",inactive: -1
11,O=C(O)c1ccc2c(c1)nc(Nc1cccc(Cl)c1)c1ccncc12 [cx-4945 (Silmitasertib)] + C=CCn1c(=O)c2cnc(Nc3ccc(N4CCN(C)CC4)cc3)nc2n1-c1cccc(C(C)(C)O)n1 [MK1775],inactive: -0.73
12,Oc1ccc(Cn2cc[nH]c2=S)cc1 [1-(4-Hydroxybenzyl)imidazole-2-thiol] + C=CCn1c(=O)c2cnc(Nc3ccc(N4CCN(C)CC4)cc3)nc2n1-c1cccc(C(C)(C)O)n1 [MK1775],inactive: -0.265
13,CCN(CC)C(=S)SSC(=S)N(CC)CC [Disulfiram (Antabuse)] + C=CCn1c(=O)c2cnc(Nc3ccc(N4CCN(C)CC4)cc3)nc2n1-c1cccc(C(C)(C)O)n1 [MK1775],inactive: -0.123
14,C=C[C@@]1(C)CC(=O)[C@]2(O)[C@@]3(C)[C@@H](O)CCC(C)(C)[C@@H]3[C@H](O)[C@H](OC(C)=O)[C@@]2(C)O1 [Forskolin] + C=CCn1c(=O)c2cnc(Nc3ccc(N4CCN(C)CC4)cc3)nc2n1-c1cccc(C(C)(C)O)n1 [MK1775],inactive: -0.702
15,COc1cc2/c(=N/c3ccc(Br)cc3F)nc[nH]c2cc1OCC1CCN(C)CC1 [Vandetanib (Zactima)] + C=CCn1c(=O)c2cnc(Nc3ccc(N4CCN(C)CC4)cc3)nc2n1-c1cccc(C(C)(C)O)n1 [MK1775],inactive: -0.336
16,"Nc1c2c(nc3ccccc13)CCCC2 [9-Amino-1,2,3,4-tetrahydroacridine hydrochloride] + C=CCn1c(=O)c2cnc(Nc3ccc(N4CCN(C)CC4)cc3)nc2n1-c1cccc(C(C)(C)O)n1 [MK1775]",inactive: -0.374
17,Cc1nc2sccn2c(=O)c1CCN1CCC(=C(c2ccccc2)c2ccc(F)cc2)CC1 [Diacylglycerol kinase inhibitor I] + C=CCn1c(=O)c2cnc(Nc3ccc(N4CCN(C)CC4)cc3)nc2n1-c1cccc(C(C)(C)O)n1 [MK1775],inactive: -0.479
18,"NC(N)=NC(=O)c1nc(Cl)c(N2CCCCCC2)nc1N [5-(N,N-hexamethylene)amiloride] + C=CCn1c(=O)c2cnc(Nc3ccc(N4CCN(C)CC4)cc3)nc2n1-c1cccc(C(C)(C)O)n1 [MK1775]",inactive: 1.17
